# From PubChem BioAssay AID651640 (Broad Institute, 2012)
# “And” between values parts separate entries of the source, which are not always exact repeats. Equal values may be shown once. Hit rate of the full screen: of about 350,000 compounds, about 6,000 (1.7%) were called active. Inconclusive means that the source gave no clear call. Such entries were picked first, then a sample of the others. Cut-off read from the data, not from the text of the source: active = CPE inhibition above about 20% (passing the limit was not always enough); inconclusive = no clear call, values can overlap the other calls; tested in BHK-21 cells.
# Test: protection of cells from dengue 2 killing – plate reader, single concentration, primary screen (AID 651640);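 note: 0% = median of neutral control wells and 100% = median of positive control wells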
# Conditions: DENV2-infected cells, cytopathic effect rescue, at 9.99 µM, stronger effect = higher value
row,Compound,CPE inhibition
1,Cc1ccc(S(=O)(=O)N(C)C[C@H]2Oc3ccc(NS(=O)(=O)c4ccccc4)cc3CC(=O)N([C@H](C)CO)C[C@@H]2C)cc1,inactive: -0.107%
2,CCCNC(=O)CS(=O)(=O)c1ccccc1,inconclusive: 56.3%
3,C/C=C/c1ccc2c(c1)[C@H]1[C@H](CCN1S(=O)(=O)c1ccccc1F)[C@H](CO)N2,active: 25.5%
4,Cc1[nH]c(C)c(S(=O)(=O)N2CCN(c3ccccc3F)CC2)c1C(=O)N1CCCCC1,inconclusive: 86.4%
5,COC(=O)[C@@H]1[C@@H](CO)[C@@H]2Cn3c(ccc(-c4ccccc4)c3=O)[C@@H]2N1C(=O)CC1CC1,inactive: 18.8%
6,Cc1ccc2c(c1)N(CC(=O)NC1CCCCC1)C(=O)c1cccnc1O2,inconclusive: 26.2%
7,Cc1ccccc1OCCC(=O)Nc1ccccc1C(=O)NC1CC1,inconclusive: 35.3%
8,Cc1ccc(S(=O)(=O)Nc2ccc3c(c2)CC(=O)N([C@@H](C)CO)C[C@H](C)[C@H](CN(C)Cc2ccc(-c4ccccc4)cc2)O3)cc1,inconclusive: 27.3%
9,C[C@H]1CCCCO[C@@H](CN(C)Cc2ccc3c(c2)OCO3)[C@@H](C)CN([C@@H](C)CO)C(=O)c2cc(NC(=O)c3ccncc3)ccc2O1,inconclusive: 42.9%
10,COCCn1c(COc2cccc(OC)c2)nnc1SCC(=O)NC1CCCCC1,inconclusive: 22.3%
11,O=C(Nc1ccccc1)N1C[C@H]2[C@@H](c3ccccc31)[C@H](CO)N2Cc1ccccc1,active: 56.9%
12,COc1ccc(/C=C(/NC(=O)c2ccco2)C(=O)Nc2ccc(C(C)=O)cc2)cc1,inconclusive: 21.2%
13,O=C(/C=C/c1cccnc1)c1ccc([N+](=O)[O-])cc1,inactive: -0.519%
14,CC(C)c1cccc(-c2csc(C(C)(O)c3cccc(F)c3)n2)c1 (configuration not stated),inconclusive: 41.6%
15,COc1cc(Br)cc(/C=C/c2ccc3cccc(O)c3n2)c1OC,inactive: 10.9%
16,O=C1/C(=C/c2ccc3c(c2)OCO3)SC(=S)N1CCC(=O)N(CCO)c1ccccc1,inconclusive: 20.1%
17,COc1cc2[nH]c(C(=O)N3CCc4ccccc43)cc2c(OC)c1OC,inconclusive: 27.5%
18,Cc1ccc(C(=O)NCC(=O)OC(C)C(=O)NC2CCCCC2C)cc1C (configuration not stated),inconclusive: 20.7%
19,Cc1noc(C)c1NC(=O)Nc1cccc2c1O[C@H](CN(C)Cc1ccc(-c3ccccc3)cc1)[C@H](C)CN([C@H](C)CO)C2=O,inconclusive: 42.3%
20,CN(Cc1ccon1)C(=O)CC1C(=O)NCCN1Cc1cccc(Oc2ccccc2)c1 (configuration not stated),inconclusive: 24.9%
21,CCCn1c(CCNc2nc(-c3ccc(Cl)c([N+](=O)[O-])c3)cs2)nc2cc(Cl)c(Cl)cc21,inconclusive: 66.3%
22,O=C(C[C@H]1CC[C@H]2[C@@H](COC[C@@H](O)CN2CC2CCCCC2)O1)NCC1CC1,active: 27.2%
23,CN1CCN(C(=O)C[C@@H]2C[C@H]3c4cc(NC(=O)c5cccnc5)ccc4O[C@H]3[C@H](CO)O2)CC1,inconclusive: 46.3% and inconclusive: 63.7%
24,CCOC(=O)[C@]12CCCC=C1N(Cc1ccccc1)C(=O)[C@H](CC(=O)NCC1CCCCC1)C2,inactive: 3.26%

# Quoted at random: 3 records from the list
row,Compound,CPE inhibition
11,O=C(Nc1ccccc1)N1C[C@H]2[C@@H](c3ccccc31)[C@H](CO)N2Cc1ccccc1,active: 56.9%
4,Cc1[nH]c(C)c(S(=O)(=O)N2CCN(c3ccccc3F)CC2)c1C(=O)N1CCCCC1,inconclusive: 86.4%
2,CCCNC(=O)CS(=O)(=O)c1ccccc1,inconclusive: 56.3%

# Gathered by group: those above containing two or more sulfur atoms.
row,Compound,CPE inhibition
1,Cc1ccc(S(=O)(=O)N(C)C[C@H]2Oc3ccc(NS(=O)(=O)c4ccccc4)cc3CC(=O)N([C@H](C)CO)C[C@@H]2C)cc1,inactive: -0.107%
16,O=C1/C(=C/c2ccc3c(c2)OCO3)SC(=S)N1CCC(=O)N(CCO)c1ccccc1,inconclusive: 20.1%

# Next part.

row,Compound,CPE inhibition
1,NC(CCc1ccccc1)c1csc(NC(=O)NCCc2ccccc2)n1 (configuration not stated),inconclusive: 37.3%
2,CCN(C(=O)Nc1cccc(Cl)c1)c1ccccc1,inactive: -0.722%
3,CC(C)NC(=O)Nc1ccc2c(c1)CC(=O)N([C@@H](C)CO)C[C@@H](C)[C@H](CN(C)Cc1ccc(-c3ccccc3)cc1)O2,active: 29.7%
4,CC1(C(=O)NCc2ccccc2)CN(S(C)(=O)=O)CC(=O)N1CCc1ccccc1F (configuration not stated),active: 74.3%
5,CC1CCCN(CCCNC(=O)c2cn(C)c3ccc(S(=O)(=O)N(C)C4CCCCC4)cc3c2=O)C1 (configuration not stated),inconclusive: 35%
6,COCC#Cc1cnc2c(c1)C(=O)N([C@@H](C)CO)C[C@@H](C)[C@H](CN(C)C(=O)C1CC1)O2,inactive: 0.916%
7,COc1ccccc1NC(=O)N[C@@H]1C=C[C@H](CC(=O)N[C@@H](C)c2ccccc2)O[C@H]1CO,active: 66%
8,CC(C)(C)OC(=O)C[C@@H]1C/C=C\C[C@H](CC(=O)N(CCO)Cc2ccccc2)C(=O)N[C@@H](Cc2c[nH]c3ccccc23)COC1=O,inconclusive: 43.3%
9,O=C(Cc1ccccc1)N1CC2(C1)[C@@H](c1ccccc1)[C@@H](CO)N2S(=O)(=O)Cc1ccccc1,active: 35.3%
10,CCSc1nnc(SCC(=O)NNC(=O)c2ccccc2F)s1,inconclusive: 24.7%
11,CCc1nnc(NC(=O)c2ccc3c(=O)n4c(nc3c2)CCC4)s1,inconclusive: 26.4%
12,OC[C@@H]1CN(Cc2ccc(F)cc2)C[C@H](n2cnc3c(NCc4ccncc4)ncnc32)O1,inconclusive: 20.3%
13,C[C@@H]1CN([C@@H](C)CO)C(=O)c2cc(NS(C)(=O)=O)ccc2O[C@@H](C)CCCCO[C@H]1CN(C)Cc1ccncc1,inconclusive: 21.9%
14,COc1ccc(-c2nc3c4ccccc4ccn3c2Cc2cccc(Cl)c2)cc1OC,active: 75.8%
15,CSC1=Nc2ccccc2N=C(N2CCCC2)C1,inconclusive: 25.3%
16,CC(=O)Nc1cccc(C(=O)NC2CCCc3c2cnn3-c2ccc(C(C)(C)C)cc2)c1 (configuration not stated),inconclusive: 28.1%
17,COc1ccc(NC(=O)N(C)C[C@@H]2Oc3c(NC(=O)C4CC4)cccc3C(=O)N([C@@H](C)CO)C[C@H]2C)cc1,inactive: -2.06%
18,COc1ccc2c3c(n(C)c2c1)[C@@H](CO)N(CC1CC1)CC31CN(C(=O)CC2CC2)C1,active: 20.8%
19,CCOC(=O)CNc1cccc(C(F)(F)F)c1,inconclusive: 23.8%
20,COc1ccc(-n2nnnc2C2(C)CCC(=O)N2Cc2ccccc2)cc1 (configuration not stated),active: 63.4%
21,Cc1c(Cl)cccc1NC(=O)CNC(=O)C1CC(=O)N(C2CCCC2)C1 (configuration not stated),active: 87.8%
22,CN(C)CC(=O)N1CC[C@@H]2[C@H]1c1cc(-c3ccccc3F)ccc1N(C)[C@@H]2CO,active: 48.7%
23,O=C(COC(=O)c1c(Cl)cccc1Cl)NCC1CCCO1 (configuration not stated),inconclusive: 32.2%
24,CNC[C@H]1OCCCC[C@@H](C)Oc2ccc(N)cc2C(=O)N([C@@H](C)CO)C[C@@H]1C,inactive: 3.33%

row,Compound,CPE inhibition
1,C[C@H](CO)N1C[C@H](C)[C@H](CN(C)C(=O)Nc2ccccc2)Oc2ccc(NS(=O)(=O)c3ccccc3)cc2CC1=O,active: 33.6%
2,O=C(C[C@H]1CC[C@@H]2[C@H](COC[C@@H](O)CN2Cc2ccc3c(c2)OCO3)O1)N1CCOCC1,inactive: 0.724%
3,C[C@H](NC(=O)C[C@@H]1CC[C@H](NC(=O)C2CC2)[C@@H](CO)O1)c1ccccc1,inactive: -0.393%
4,CCOc1ccc(N2C(=O)Cc3ccccc3C2=O)cc1,inactive: -1.02%
5,COc1ccc(C)cc1Nc1n[n+](-c2ccccc2)c(-c2ccc(SC)cc2)s1,inconclusive: 81.2%
6,COC/C=C/C1=CC(=O)C[C@H](c2ccc3c(c2)OCO3)C1,inconclusive: 61%
7,O=C(C[C@@H]1C=C[C@@H](NC(=O)c2ccc(F)cc2)[C@@H](CO)O1)NCc1ccncn1,inactive: 3.64%
8,CNC[C@H]1Oc2ncc(-c3cccc(C(=O)N(C)C)c3)cc2C(=O)N([C@@H](C)CO)C[C@H]1C,inactive: 0.814%
9,CN(C)C(=O)C[C@H]1C[C@H]2c3cc(NC(=O)c4ccc5c(c4)OCO5)ccc3O[C@H]2[C@@H](CO)O1,inconclusive: 40.3%
10,Cc1ccc(-c2csc3ncnc(Cl)c23)cc1,inconclusive: 44.7%
11,CN(C)C(=O)c1cccc(-c2ccc3n(c2=O)C[C@@H]2[C@@H](CO)[C@H](C(=O)NCC4CC4)N[C@H]32)c1,inactive: -1.09%
12,C[C@H](CO)N1C[C@H](C)[C@@H](CN(C)Cc2ccc(C(F)(F)F)cc2)Oc2ccc(NC(=O)CCCCCC(=O)Nc3ccccc3N)cc2CC1=O,inactive: 13.3%
13,CCN1CCN(c2nc3c(c(=O)[nH]c(=O)n3C)n2Cc2cccc(C)c2)CC1,inconclusive: 62%
14,C[C@@H]1CN([C@@H](C)CO)C(=O)Cc2cc(NS(=O)(=O)c3cn(C)cn3)ccc2O[C@H]1CN(C)C(=O)NC1CCCCC1,inconclusive: 21.7%
15,COc1ccc(-c2nn(-c3ccccc3)cc2/C=N/O)cc1OC,inconclusive: 26.1%
16,O=C(O)c1ccc([N+](=O)[O-])cc1-c1cc([N+](=O)[O-])ccc1C(=O)O,inconclusive: 45.9%
17,COc1ccc(NC(=O)CC2C(=O)NCCN2C(=O)c2ccccc2)cc1 (configuration not stated),inconclusive: 37.7%
18,C[C@H]1CN([C@@H](C)CO)C(=O)c2cccc(NC(=O)C3CCOCC3)c2O[C@H]1CN(C)CC1CCCCC1,active: 43.6%
19,CC(C)C[C@H]1COc2cc(Br)ccc2S(=O)(=O)N1Cc1ccc(Cl)cc1,inconclusive: 70.8%
20,C[C@H]1CN([C@@H](C)CO)C(=O)c2cc(-c3cccnc3)cnc2O[C@@H]1CN(C)C(=O)Nc1ccc(C(F)(F)F)cc1,inactive: 1.83%
21,O=C(c1ccc(F)cc1)N1CC(=O)N2[C@H](C1)[C@H](c1ccc(C3=CCCC3)cc1)[C@@H]2CO,active: 53.2%
22,Cc1noc(C)c1NC(=O)Nc1cccc2c1O[C@H](CN(C)C)[C@H](C)CN([C@@H](C)CO)C2=O,inactive: 1.93%
23,CCC(=O)N1CC2(C1)[C@@H](c1ccc(-c3cccc(F)c3)cc1)[C@@H](CO)N2CC1CC1,active: 20.5%
24,Cn1c(SCC(=O)Nc2ccccc2F)nc2c(c1=O)SCC2,inconclusive: 27.9%
